# Results published in the supplement of paper PMC6411743.
# Sequences of proteins named here, by UniProt entry; tags and fusion partners are left off. A change or cut given only in a name is not applied to a line headed by its entry.
# UniProt O75152: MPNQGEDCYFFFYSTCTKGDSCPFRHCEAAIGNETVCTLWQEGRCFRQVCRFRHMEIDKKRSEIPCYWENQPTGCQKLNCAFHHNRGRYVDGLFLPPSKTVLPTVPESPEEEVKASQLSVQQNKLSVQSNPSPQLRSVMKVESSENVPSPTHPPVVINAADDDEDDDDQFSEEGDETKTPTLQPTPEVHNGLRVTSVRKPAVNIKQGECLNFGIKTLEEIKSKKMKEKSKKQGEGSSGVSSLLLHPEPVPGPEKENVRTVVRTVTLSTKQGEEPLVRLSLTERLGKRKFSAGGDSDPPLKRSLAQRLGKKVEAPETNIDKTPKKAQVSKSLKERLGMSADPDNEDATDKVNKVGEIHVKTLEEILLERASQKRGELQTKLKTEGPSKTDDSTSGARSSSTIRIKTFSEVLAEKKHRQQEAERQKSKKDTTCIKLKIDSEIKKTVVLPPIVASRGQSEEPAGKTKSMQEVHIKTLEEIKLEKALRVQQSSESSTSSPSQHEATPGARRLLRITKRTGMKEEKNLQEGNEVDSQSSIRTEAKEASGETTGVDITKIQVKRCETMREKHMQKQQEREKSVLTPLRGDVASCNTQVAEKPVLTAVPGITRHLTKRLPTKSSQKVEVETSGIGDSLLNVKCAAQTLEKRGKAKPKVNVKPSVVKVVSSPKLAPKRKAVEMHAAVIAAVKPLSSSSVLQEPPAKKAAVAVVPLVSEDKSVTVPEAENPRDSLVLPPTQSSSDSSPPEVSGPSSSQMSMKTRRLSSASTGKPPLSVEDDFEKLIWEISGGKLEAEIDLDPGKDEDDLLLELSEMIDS
# UniProt O75494: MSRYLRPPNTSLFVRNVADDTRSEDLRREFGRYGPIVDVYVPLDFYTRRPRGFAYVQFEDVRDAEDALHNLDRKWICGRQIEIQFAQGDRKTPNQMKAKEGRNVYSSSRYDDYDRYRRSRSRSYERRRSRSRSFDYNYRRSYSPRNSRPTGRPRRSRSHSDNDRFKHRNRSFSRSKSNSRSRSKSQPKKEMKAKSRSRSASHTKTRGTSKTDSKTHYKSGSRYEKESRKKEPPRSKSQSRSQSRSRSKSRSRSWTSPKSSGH
# UniProt O75164: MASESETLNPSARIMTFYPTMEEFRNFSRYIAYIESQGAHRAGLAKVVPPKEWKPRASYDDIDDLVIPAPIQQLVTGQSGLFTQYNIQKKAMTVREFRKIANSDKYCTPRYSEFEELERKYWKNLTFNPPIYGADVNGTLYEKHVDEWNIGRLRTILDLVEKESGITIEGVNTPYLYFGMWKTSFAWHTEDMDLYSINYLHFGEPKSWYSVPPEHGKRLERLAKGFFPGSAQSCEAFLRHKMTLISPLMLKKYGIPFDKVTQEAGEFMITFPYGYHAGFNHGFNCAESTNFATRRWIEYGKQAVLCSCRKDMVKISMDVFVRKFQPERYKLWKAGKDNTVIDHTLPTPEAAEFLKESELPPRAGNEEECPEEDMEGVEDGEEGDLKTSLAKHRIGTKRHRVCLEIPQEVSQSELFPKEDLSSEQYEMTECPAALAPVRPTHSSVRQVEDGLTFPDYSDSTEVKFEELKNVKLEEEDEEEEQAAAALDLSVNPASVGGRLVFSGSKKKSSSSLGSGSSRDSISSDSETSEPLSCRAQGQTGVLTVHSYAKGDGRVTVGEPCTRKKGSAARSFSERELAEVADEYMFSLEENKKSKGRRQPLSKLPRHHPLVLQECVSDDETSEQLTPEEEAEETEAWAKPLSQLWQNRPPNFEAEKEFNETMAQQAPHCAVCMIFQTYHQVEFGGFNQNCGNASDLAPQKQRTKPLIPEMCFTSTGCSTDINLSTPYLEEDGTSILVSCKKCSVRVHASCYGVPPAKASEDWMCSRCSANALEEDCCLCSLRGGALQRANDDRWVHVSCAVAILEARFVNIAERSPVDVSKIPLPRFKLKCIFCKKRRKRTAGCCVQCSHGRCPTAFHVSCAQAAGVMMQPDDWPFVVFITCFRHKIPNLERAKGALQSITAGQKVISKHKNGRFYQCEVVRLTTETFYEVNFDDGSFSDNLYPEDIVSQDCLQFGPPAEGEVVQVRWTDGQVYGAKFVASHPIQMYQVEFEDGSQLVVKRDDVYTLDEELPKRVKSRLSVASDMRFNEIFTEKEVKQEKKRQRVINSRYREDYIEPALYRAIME
# UniProt O75155: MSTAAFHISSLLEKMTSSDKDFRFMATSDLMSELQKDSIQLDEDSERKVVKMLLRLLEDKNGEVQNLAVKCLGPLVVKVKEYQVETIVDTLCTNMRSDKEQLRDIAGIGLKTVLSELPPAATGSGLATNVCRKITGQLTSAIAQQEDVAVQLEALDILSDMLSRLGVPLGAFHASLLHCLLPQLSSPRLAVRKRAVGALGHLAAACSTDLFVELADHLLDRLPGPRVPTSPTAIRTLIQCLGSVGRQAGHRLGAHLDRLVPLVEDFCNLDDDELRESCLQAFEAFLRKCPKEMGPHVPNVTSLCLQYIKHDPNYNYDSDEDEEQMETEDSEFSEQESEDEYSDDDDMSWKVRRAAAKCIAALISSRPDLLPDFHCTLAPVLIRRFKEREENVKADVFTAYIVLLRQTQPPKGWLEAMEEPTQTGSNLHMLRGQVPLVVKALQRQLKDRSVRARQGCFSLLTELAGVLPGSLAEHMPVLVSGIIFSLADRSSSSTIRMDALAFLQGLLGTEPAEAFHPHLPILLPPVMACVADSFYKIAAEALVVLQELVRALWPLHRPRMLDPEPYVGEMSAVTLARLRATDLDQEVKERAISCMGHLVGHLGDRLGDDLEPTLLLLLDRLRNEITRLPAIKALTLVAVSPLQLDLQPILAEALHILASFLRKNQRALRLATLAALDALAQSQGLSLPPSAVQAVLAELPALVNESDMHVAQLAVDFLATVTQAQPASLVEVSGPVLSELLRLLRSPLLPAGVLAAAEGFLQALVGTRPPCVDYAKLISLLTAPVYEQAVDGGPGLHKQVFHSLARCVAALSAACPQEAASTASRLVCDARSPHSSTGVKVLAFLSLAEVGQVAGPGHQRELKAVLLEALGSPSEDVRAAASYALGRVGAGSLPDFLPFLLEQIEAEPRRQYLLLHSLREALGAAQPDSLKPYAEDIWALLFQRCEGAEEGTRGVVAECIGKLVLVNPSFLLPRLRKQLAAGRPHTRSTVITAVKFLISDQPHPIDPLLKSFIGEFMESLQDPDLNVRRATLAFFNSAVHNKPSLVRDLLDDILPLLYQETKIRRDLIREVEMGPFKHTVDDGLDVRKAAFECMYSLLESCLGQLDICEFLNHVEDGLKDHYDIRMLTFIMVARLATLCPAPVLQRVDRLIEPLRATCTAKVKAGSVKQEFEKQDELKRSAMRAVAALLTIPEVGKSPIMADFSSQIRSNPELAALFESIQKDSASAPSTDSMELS
# UniProt O60784, whole entry: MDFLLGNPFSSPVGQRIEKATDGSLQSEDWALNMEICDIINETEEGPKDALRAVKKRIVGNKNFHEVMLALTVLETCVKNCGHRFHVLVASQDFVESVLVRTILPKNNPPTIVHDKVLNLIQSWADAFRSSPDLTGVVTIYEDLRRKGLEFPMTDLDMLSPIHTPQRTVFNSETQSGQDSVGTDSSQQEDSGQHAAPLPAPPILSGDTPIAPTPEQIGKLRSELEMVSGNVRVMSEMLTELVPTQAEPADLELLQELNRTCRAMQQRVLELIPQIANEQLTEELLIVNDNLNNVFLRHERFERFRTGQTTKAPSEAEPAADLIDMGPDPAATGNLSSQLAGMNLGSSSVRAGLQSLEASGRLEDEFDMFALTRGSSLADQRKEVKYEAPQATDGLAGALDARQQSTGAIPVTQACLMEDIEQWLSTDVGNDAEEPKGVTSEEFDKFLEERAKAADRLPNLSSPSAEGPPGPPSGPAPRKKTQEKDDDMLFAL
# UniProt O60645: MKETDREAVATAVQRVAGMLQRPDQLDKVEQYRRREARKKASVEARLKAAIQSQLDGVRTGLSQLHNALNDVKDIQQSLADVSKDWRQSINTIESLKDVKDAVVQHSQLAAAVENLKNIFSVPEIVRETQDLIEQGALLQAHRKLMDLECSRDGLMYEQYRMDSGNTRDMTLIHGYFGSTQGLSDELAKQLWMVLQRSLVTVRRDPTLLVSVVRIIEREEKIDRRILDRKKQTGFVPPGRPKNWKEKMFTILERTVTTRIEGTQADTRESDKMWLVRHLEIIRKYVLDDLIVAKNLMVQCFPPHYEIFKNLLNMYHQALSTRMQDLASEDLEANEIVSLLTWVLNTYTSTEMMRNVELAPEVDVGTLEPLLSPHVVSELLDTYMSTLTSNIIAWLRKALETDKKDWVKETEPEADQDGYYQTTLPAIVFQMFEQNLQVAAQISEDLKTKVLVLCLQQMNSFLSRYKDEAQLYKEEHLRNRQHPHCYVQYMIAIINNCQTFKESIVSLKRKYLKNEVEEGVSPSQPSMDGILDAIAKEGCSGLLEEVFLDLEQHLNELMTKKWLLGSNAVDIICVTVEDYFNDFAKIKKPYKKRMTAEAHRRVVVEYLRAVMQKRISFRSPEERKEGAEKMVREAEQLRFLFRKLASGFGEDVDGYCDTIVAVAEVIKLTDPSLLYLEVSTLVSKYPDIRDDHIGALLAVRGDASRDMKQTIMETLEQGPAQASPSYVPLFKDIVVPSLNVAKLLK
# UniProt O60675: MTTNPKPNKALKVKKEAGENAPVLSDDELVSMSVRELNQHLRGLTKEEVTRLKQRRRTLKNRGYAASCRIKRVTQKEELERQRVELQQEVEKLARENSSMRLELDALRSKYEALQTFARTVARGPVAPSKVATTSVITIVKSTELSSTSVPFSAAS
# UniProt O60825: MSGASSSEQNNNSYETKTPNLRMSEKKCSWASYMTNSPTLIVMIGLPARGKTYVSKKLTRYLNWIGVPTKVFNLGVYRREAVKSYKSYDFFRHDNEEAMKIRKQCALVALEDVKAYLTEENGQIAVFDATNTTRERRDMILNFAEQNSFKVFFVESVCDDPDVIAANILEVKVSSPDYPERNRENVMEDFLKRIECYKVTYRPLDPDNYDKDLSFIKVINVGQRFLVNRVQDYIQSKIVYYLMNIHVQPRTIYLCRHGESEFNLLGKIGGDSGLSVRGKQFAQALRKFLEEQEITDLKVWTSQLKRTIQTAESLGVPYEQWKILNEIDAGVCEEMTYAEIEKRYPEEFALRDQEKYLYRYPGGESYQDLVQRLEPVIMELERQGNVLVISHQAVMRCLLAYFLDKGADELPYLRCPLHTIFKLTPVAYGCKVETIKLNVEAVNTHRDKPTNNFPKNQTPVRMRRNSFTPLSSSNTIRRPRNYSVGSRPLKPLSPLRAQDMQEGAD
# UniProt O95782: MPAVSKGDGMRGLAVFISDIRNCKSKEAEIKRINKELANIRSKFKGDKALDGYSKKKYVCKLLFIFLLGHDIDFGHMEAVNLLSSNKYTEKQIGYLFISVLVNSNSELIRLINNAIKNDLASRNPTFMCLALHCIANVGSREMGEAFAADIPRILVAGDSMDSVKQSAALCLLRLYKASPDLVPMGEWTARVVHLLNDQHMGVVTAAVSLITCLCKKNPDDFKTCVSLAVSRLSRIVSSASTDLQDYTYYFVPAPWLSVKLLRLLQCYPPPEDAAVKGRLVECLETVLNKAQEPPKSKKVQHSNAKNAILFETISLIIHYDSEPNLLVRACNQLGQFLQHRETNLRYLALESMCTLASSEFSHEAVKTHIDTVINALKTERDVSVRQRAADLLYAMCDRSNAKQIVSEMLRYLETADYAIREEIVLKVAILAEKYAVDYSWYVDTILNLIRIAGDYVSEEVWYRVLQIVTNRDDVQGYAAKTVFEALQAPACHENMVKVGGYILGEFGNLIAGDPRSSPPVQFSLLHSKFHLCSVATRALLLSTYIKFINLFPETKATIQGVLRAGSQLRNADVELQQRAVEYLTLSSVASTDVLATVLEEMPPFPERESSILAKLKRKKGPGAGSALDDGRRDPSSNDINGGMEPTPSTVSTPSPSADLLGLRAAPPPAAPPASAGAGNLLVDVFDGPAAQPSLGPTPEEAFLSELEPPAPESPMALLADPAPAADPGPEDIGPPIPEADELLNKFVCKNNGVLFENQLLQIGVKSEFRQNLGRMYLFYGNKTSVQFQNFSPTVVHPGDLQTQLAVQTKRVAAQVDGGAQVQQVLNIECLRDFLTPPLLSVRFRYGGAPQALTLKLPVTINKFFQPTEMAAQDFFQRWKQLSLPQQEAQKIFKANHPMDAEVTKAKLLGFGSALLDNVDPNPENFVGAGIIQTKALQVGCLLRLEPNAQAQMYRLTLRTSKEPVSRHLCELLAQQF
# ± gives the standard deviation of the averaged measurements. Only a part is listed here, and it is no random draw.
# Compound: Nc1ncnc2c1ncn2[C@@H]1O[C@H](COP(=O)(O)OP(=O)(O)OP(=O)(O)O)[C@@H](O)[C@H]1O [adenosine triphosphate]
# Assay: NP40-soluble protein abundance relative to vehicle (solubility fold change) (ratio); higher = more soluble protein in presence of ATP
# Settings: concentration: 1mM
# How it was run: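 In three independent experiments, Jurkat crude lysate made by Dounce homogenisation was treated for 10 min at room temperature and then 3 min at 37 °C with eight concentrations ranging from 0.1 to 10 mM. It was then solubilised with 0.8% NP40 plus benzonase for 60 min at 4 °C and ultracentrifuged. The supernatant was TMT-labelled for LC-MS/MS, and each value is the fold change against the detergent-processed vehicle for the same replicate, using vsn-normalised intensities.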
row,Target,NP40-soluble protein abundance
1,VPS26A (UniProt O75436),1.1 ± 0.16
2,ZBTB7A (UniProt O95365),1.03 ± 0.042
3,UniProt O95758-2|O95758-6|O95758 and related entries,1 ± 0.03
4,NDUFS6 (UniProt O75380),0.961 ± 0.091
5,UniProt O75396,0.951 ± 0.031
6,GRAP2 (UniProt O75791),0.968 ± 0.06
7,ROCK2 (UniProt O75116),0.958 ± 0.046
8,ZC3H11A (UniProt O75152),0.871 ± 0.028
9,RANBP6 (UniProt O60518),0.956 ± 0.094
10,MRPS14 (UniProt O60783),0.94 ± 0.075
11,ZMPSTE24 (UniProt O75844),1.03 ± 0.1
12,UniProt O94855 and related entries,0.999 ± 0.14
13,NDUFS3 (UniProt O75489),0.9574 ± 0.0069
14,UniProt O75928 and related entries,1.02 ± 0.12
15,UniProt O60880 and related entries,0.933 ± 0.074
16,UniProt O75179 and related entries,0.957 ± 0.034
17,RPP14 (UniProt O95059),0.985 ± 0.038
18,UTP20 (UniProt O75691),1.03 ± 0.063
19,UniProt O75494 and related entries,1.26 ± 0.081

row,Target,NP40-soluble protein abundance
1,UniProt O75592 and related entries,1.02 ± 0.094
2,UniProt O75330 and related entries,0.954 ± 0.045
3,UniProt O75164,1.09 ± 0.034
4,UniProt O75312,0.952 ± 0.045
5,UniProt O94874,0.995 ± 0.054
6,UniProt O94966-6|O94966-7|O94966-4,0.98 ± 0.027
7,GIGYF1 (UniProt O75420),1.24 ± 0.13
8,UniProt O75155 and related entries,0.973 ± 0.056
9,TOM1 (UniProt O60784),0.871 ± 0.045
10,UniProt O95298 and related entries,0.912 ± 0.084
11,BRD4 (UniProt O60885),0.999 ± 0.037
12,UniProt O60645 and related entries,1.04 ± 0.049
13,VAPB (UniProt O95292),0.977 ± 0.074
14,MAFK (UniProt O60675),1.03 ± 0.16
15,UniProt O60825 and related entries,1.05 ± 0.089
16,UniProt O60831 and related entries,0.955 ± 0.052
17,UniProt O95782 and related entries,1.06 ± 0.081
18,UniProt O75925 and related entries,0.835 ± 0.057

# Same assay, conditions: concentration: 2mM
row,Target,NP40-soluble protein abundance
1,VPS26A (UniProt O75436),1.01 ± 0.13
2,ZBTB7A (UniProt O95365),1.09 ± 0.012
3,UniProt O95758-2|O95758-6|O95758 and related entries,1.01 ± 0.037
4,NDUFS6 (UniProt O75380),0.901 ± 0.041
5,UniProt O75396,0.926 ± 0.018
6,GRAP2 (UniProt O75791),0.968 ± 0.05
7,ROCK2 (UniProt O75116),0.97 ± 0.025
8,ZC3H11A (UniProt O75152),0.899 ± 0.028
9,RANBP6 (UniProt O60518),0.928 ± 0.091
10,MRPS14 (UniProt O60783),0.855 ± 0.13
11,ZMPSTE24 (UniProt O75844),1.01 ± 0.087
12,UniProt O94855 and related entries,1.01 ± 0.084
13,NDUFS3 (UniProt O75489),0.969 ± 0.028
14,UniProt O75928 and related entries,1 ± 0.1
15,UniProt O60880 and related entries,0.926 ± 0.083
16,UniProt O75179 and related entries,0.975 ± 0.065
17,RPP14 (UniProt O95059),0.965 ± 0.031
18,UTP20 (UniProt O75691),1.07 ± 0.059
19,UniProt O75494 and related entries,1.3 ± 0.09

row,Target,NP40-soluble protein abundance
1,UniProt O75592 and related entries,0.971 ± 0.053
2,UniProt O75330 and related entries,0.986 ± 0.053
3,UniProt O75164,1.06 ± 0.058
4,UniProt O75312,0.979 ± 0.012
5,UniProt O94874,1.04 ± 0.034
6,UniProt O94966-6|O94966-7|O94966-4,0.99 ± 0.012
7,GIGYF1 (UniProt O75420),1.28 ± 0.11
8,UniProt O75155 and related entries,0.934 ± 0.042
9,TOM1 (UniProt O60784),0.938 ± 0.041
10,UniProt O95298 and related entries,0.86 ± 0.037
11,BRD4 (UniProt O60885),1.02 ± 0.028
12,UniProt O60645 and related entries,1.03 ± 0.059
13,VAPB (UniProt O95292),0.953 ± 0.03
14,MAFK (UniProt O60675),0.986 ± 0.11
15,UniProt O60825 and related entries,1.05 ± 0.052
16,UniProt O60831 and related entries,1.01 ± 0.044
17,UniProt O95782 and related entries,1.08 ± 0.063
18,UniProt O75925 and related entries,0.941 ± 0.16

# Same assay, conditions: concentration: 4mM
row,Target,NP40-soluble protein abundance
1,VPS26A (UniProt O75436),1.01 ± 0.12
2,ZBTB7A (UniProt O95365),1.11 ± 0.15
3,UniProt O95758-2|O95758-6|O95758 and related entries,1.06 ± 0.061
4,NDUFS6 (UniProt O75380),0.843 ± 0.039
5,UniProt O75396,0.915 ± 0.031
6,GRAP2 (UniProt O75791),0.954 ± 0.05
7,ROCK2 (UniProt O75116),0.96 ± 0.04
8,ZC3H11A (UniProt O75152),0.972 ± 0.027
9,RANBP6 (UniProt O60518),1.01 ± 0.061
10,MRPS14 (UniProt O60783),0.884 ± 0.11
11,ZMPSTE24 (UniProt O75844),0.974 ± 0.082
12,UniProt O94855 and related entries,0.966 ± 0.068
13,NDUFS3 (UniProt O75489),0.952 ± 0.028
14,UniProt O75928 and related entries,1 ± 0.1
15,UniProt O60880 and related entries,0.903 ± 0.032
16,UniProt O75179 and related entries,0.966 ± 0.042
17,RPP14 (UniProt O95059),0.995 ± 0.11
18,UTP20 (UniProt O75691),1.23 ± 0.1
19,UniProt O75494 and related entries,1.42 ± 0.13

row,Target,NP40-soluble protein abundance
1,UniProt O75592 and related entries,1.07 ± 0.17
2,UniProt O75330 and related entries,1.01 ± 0.07
3,UniProt O75164,1.12 ± 0.04
4,UniProt O75312,0.952 ± 0.041
5,UniProt O94874,1.07 ± 0.026
6,UniProt O94966-6|O94966-7|O94966-4,1 ± 0.046
7,GIGYF1 (UniProt O75420),1.25 ± 0.039
8,UniProt O75155 and related entries,0.925 ± 0.028
9,TOM1 (UniProt O60784),0.956 ± 0.043
10,UniProt O95298 and related entries,0.813 ± 0.085
11,BRD4 (UniProt O60885),1.01 ± 0.015
12,UniProt O60645 and related entries,1.05 ± 0.052
13,VAPB (UniProt O95292),0.944 ± 0.04
14,MAFK (UniProt O60675),1.01 ± 0.08
15,UniProt O60825 and related entries,1.05 ± 0.083
16,UniProt O60831 and related entries,0.939 ± 0.016
17,UniProt O95782 and related entries,1.11 ± 0.018
18,UniProt O75925 and related entries,0.967 ± 0.092
